This is an account of results in PubChem BioAssay AID330 (DTP/NCI, 2004).

The list does not hold the whole screen: it gathers tests that were run many times, whatever their T/C, doses with no T/C, and many T/C values between a quarter and a half above the control. Other doses and runs of a compound stand elsewhere. T/C: endpoint of the treated group in % of that of the vehicle group. Some doses have a count of surviving animals in place of a T/C: the source holds a T/C of zero for them, seemingly a mark for toxic or unscored doses. Some survivor counts are full or nearly so, which does not show that the dose was tolerated: survival well below the control is almost never listed, so the zero probably covers shortened survival too. Survivors were counted at the toxicity check, usually on the fifth day, unless a day is given; later deaths do not show. Schedule codes are those of the source, taken here to give the interval after Q, in days (D) or hours (H), and the number of doses after X. Some doses were run more than once; the values are given in rising order. For survival time, the PubChem record calls one and a half times the control and up active, and a quarter to a half above the control has no call in these data; cut-offs in other NCI protocols can differ.

The test system of the assay is P388 leukemia ip, CD2F1 mice, survival T/C. Kind of assay: NCI In Vivo Anticancer Drug Screen. Data for tumor model P388 Leukemia (intraperitoneal) in CD2F1 (CDF1) mice. The conditions noted are these: T/C endpoint: median survival time, higher T/C = longer survival.
The mark [1] stands for this setting: dose: 100.0 mg/kg/injection, schedule: Q01DX009 (ip), vehicle: saline with Tween-80.
Where [2] appears, read: dose: 200.0 mg/kg/injection, schedule: Q01DX009 (ip), vehicle: saline with Tween-80.
The mark [3] stands for this setting: dose: 200.0 mg/kg/injection, schedule: Q04DX003 (ip), vehicle: saline with Tween-80.
[4] abbreviates: dose: 200.0 mg/kg/injection, schedule: Q01DX005 (ip), vehicle: saline.
Setting [5] is: dose: 240.0 mg/kg/injection, schedule: Q01DX005 (ip), vehicle: Klucel (hydroxypropylcellulose) (HPC).
[6] abbreviates: dose: 200.0 mg/kg/injection, schedule: Q01DX009 (ip), vehicle: Klucel (hydroxypropylcellulose) (HPC).
[7] abbreviates: dose: 240.0 mg/kg/injection, schedule: Q01DX005 (ip), vehicle: saline with Tween-80.

`O=c1c2ccccc2sc2c([N+](=O)[O-])ccc(NCCNCCO)c12`: the T/C runs as follows: (dose: 12.5 mg/kg/injection, schedule: Q01DX009 (ip), vehicle: saline with Tween-80) 133 % of control; (dose: 25.0 mg/kg/injection, schedule: Q01DX009 (ip), vehicle: saline with Tween-80) 141 % of control. In addition, the survivor count was 6 of 6 under setting [1] and 6 of 6 under setting [2].

Turning to `CCOC(=O)C1CCCC1=O.CCOC(=O)C1CCCC1=O.[Cu]` (stereo not drawn), the survivor count is, setting by setting: (dose: 100.0 mg/kg/injection, schedule: Q04DX002 (ip), vehicle: saline with Tween-80) 0 of 6; (dose: 200.0 mg/kg/injection, schedule: Q04DX002 (ip), vehicle: saline with Tween-80) 1 of 6; (dose: 400.0 mg/kg/injection, schedule: Q04DX002 (ip), vehicle: saline with Tween-80) 0 of 6.

As to `O=S(=O)(CCCl)c1ccc2ccccc2c1`, the survivor count (dose: 25.0 mg/kg/injection, schedule: Q01DX009 (ip), vehicle: Klucel (hydroxypropylcellulose) (HPC)) is 6 of 6 and the survivor count (dose: 100.0 mg/kg/injection, schedule: Q01DX009 (ip), vehicle: Klucel (hydroxypropylcellulose) (HPC)) is reported as 3 of 6.

As for `CC([CH2][Sn]([CH3])([Cl])[c]1ccccc1)c1ccccc1` (stereo not drawn), the survivor count was 3 of 6 (dose: 25.0 mg/kg/injection, schedule: Q04DX003 (ip), vehicle: saline); 1 of 6 (dose: 50.0 mg/kg/injection, schedule: Q04DX003 (ip), vehicle: saline); 0 of 6 (dose: 100.0 mg/kg/injection, schedule: Q04DX003 (ip), vehicle: saline); 5 of 6 under setting [3]; 4 of 6 (dose: 400.0 mg/kg/injection, schedule: Q04DX003 (ip), vehicle: saline with Tween-80).

`C=C(Br)C(=NC(C)(C)C)Nc1cccc(Cl)c1`: where the note is “dose: 200.0 mg/kg/injection, schedule: Q01DX005 (ip), vehicle: Klucel (hydroxypropylcellulose) (HPC)”, the survivor count is given as 4 of 5.

Regarding `COc1ccc(CC2C(=O)NC(C)C(=O)N(C)C3Cc4ccc(cc4)Oc4cc(ccc4OC(C)=O)CC(C(=O)NC(C)C(=O)NC(C)C(=O)N2C)N(C)C3=O)cc1` (stereo not drawn), the T/C (dose: 0.25 mg/kg/injection, schedule: Q01DX009 (ip), vehicle: none) was 127 % of control; the T/C (dose: 0.5 mg/kg/injection, schedule: Q01DX009 (ip), vehicle: none) is 142 % of control; the T/C (dose: 1.0 mg/kg/injection, schedule: Q01DX009 (ip), vehicle: none) was 143 % of control.

With `C[N+](C)(C)CCC(=O)c1ccc(Cl)cc1`, the survivor count is given as 2 of 6 (dose: 50.0 mg/kg/injection, schedule: Q01DX009 (ip), vehicle: saline); 0 of 6 (dose: 100.0 mg/kg/injection, schedule: Q01DX009 (ip), vehicle: saline); 0 of 6 (dose: 200.0 mg/kg/injection, schedule: Q01DX009 (ip), vehicle: saline).

For `CCN(CC)CCNc1ncnc2[nH]ncc12`, the survivor count under setting [4] is 0 of 5.

For the molecule `O=C1NC(=O)C([N+](=O)[O-])C(=O)N1`, the survivor count (dose: 100.0 mg/kg/injection, schedule: Q01DX001 (ip), vehicle: saline) is 1 of 6 and 2 of 6; the survivor count (dose: 200.0 mg/kg/injection, schedule: Q01DX001 (ip), vehicle: saline) is 0 of 6; the survivor count (dose: 400.0 mg/kg/injection, schedule: Q01DX001 (ip), vehicle: saline) was 0 of 6.

Take `CC1CN1c1cc(O)c(N2CC2C)cc1O` (stereo not drawn): the T/C is 136 % of control (dose: 1.0 mg/kg/injection, schedule: Q01DX009 (ip), vehicle: saline with Tween-80) and 127 % of control (dose: 1.25 mg/kg/injection, schedule: Q04DX003 (ip), vehicle: saline with Tween-80). Moreover, the survivor count is, setting by setting: (dose: 10.0 mg/kg/injection, schedule: Q04DX003 (ip), vehicle: saline with Tween-80) 6 of 6; (dose: 15.0 mg/kg/injection, schedule: Q04DX003 (ip), vehicle: saline with Tween-80) 4 of 6.

Consider `COc1cc2nc(N3CCN(C(=O)c4ccco4)CC3)nc(N)c2cc1OC`, for which the survivor count reads like this: (dose: 50.0 mg/kg/injection, schedule: Q01DX009 (ip), vehicle: saline with Tween-80) 2 of 6; under setting [1], 0 of 6; under setting [2], 0 of 6.

`CP1(C)=NP(C)(C)=NP(C)(C)=NP(C)(C)=N1.[Cl][Pt]([Cl])([Cl])[Cl]`: under “dose: 25.0 mg/kg/injection, schedule: Q04DX003 (ip), vehicle: saline with Tween-80”, the T/C was 131 % of control. Further, the survivor count is 1 of 5 (dose: 100.0 mg/kg/injection, schedule: Q04DX003 (ip), vehicle: saline with Tween-80) and 0 of 5 under setting [3].

With `Cc1coc2c1C[C@@]1(C)[C@H](C2)C(=O)CC[C@@H]1C`, the survivor count was 1 of 6 (dose: 75.0 mg/kg/injection, schedule: Q01DX009 (ip), vehicle: Klucel (hydroxypropylcellulose) (HPC)) and 0 of 6 (dose: 150.0 mg/kg/injection, schedule: Q01DX009 (ip), vehicle: Klucel (hydroxypropylcellulose) (HPC)).

`Clc1ccc2nc3ccccc3c(SCCCCCCSc3c4ccccc4nc4ccc(Cl)cc34)c2c1`: the survivor count is given as 6 of 6 (dose: 30.0 mg/kg/injection, schedule: Q01DX005 (ip), vehicle: Klucel (hydroxypropylcellulose) (HPC)); 6 of 6 (dose: 60.0 mg/kg/injection, schedule: Q01DX005 (ip), vehicle: Klucel (hydroxypropylcellulose) (HPC)); 6 of 6 (dose: 120.0 mg/kg/injection, schedule: Q01DX005 (ip), vehicle: Klucel (hydroxypropylcellulose) (HPC)); 6 of 6 under setting [5].

`CCN(CC)CCCC(C)n1c2nc(=O)[nH]c(=O)c-2nc2cc(Cl)ccc21` (stereo not drawn): the survivor count was 0 of 6 (dose: 100.0 mg/kg/injection, schedule: Q01DX005 (ip), vehicle: saline) and 0 of 6 under setting [4].

In the case of `CCC/C(=N\O)S(=O)(=O)c1ccc(NN=O)nc1`, for the setting “dose: 25.0 mg/kg/injection, schedule: Q01DX009 (ip), vehicle: saline”, the T/C was 145 % of control.

Turning to `O=C1OCC2(C(=O)O)C(=O)OCC12` (stereo not drawn), the T/C is, setting by setting: (dose: 8.0 mg/kg/injection, schedule: Q01DX009 (ip), vehicle: saline with Tween-80) 130 % of control; (dose: 32.0 mg/kg/injection, schedule: Q01DX009 (ip), vehicle: saline with Tween-80) 126 % of control.

Regarding `CCCCCC(CN(C)C)C(O)CCc1ccc(Cl)c(Cl)c1` (stereo not drawn), the survivor count under setting [6] is given as 0 of 6.

With `COc1cc(CCCOC2OC(COC3OCC(O)C(O)C3O)C(O)C(O)C2O)cc2cc(-c3ccc4c(c3)OCO4)oc12` (stereo not drawn), the survivor count by setting is: (dose: 37.5 mg/kg/injection, schedule: Q01DX005 (ip), vehicle: Klucel (hydroxypropylcellulose) (HPC)) 5 of 6; (dose: 75.0 mg/kg/injection, schedule: Q01DX005 (ip), vehicle: Klucel (hydroxypropylcellulose) (HPC)) 6 of 6; (dose: 150.0 mg/kg/injection, schedule: Q01DX005 (ip), vehicle: Klucel (hydroxypropylcellulose) (HPC)) 6 of 6.

In the case of `CC1=C2CC(C)(C)/C=C\C(=O)/C(C)=C\C3=CC(C)(O)CC3(O2)C1=O` (stereo not drawn), where the note is “dose: 20.0 mg/kg/injection, schedule: Q01DX009 (ip), vehicle: Klucel (hydroxypropylcellulose) (HPC)”, the survivor count is on record as 2 of 6.

As for `CCOC(=O)C1=C(C(=O)c2ccccc2)C(c2ccc(Cl)cc2Cl)C(C(=O)c2ccccc2)=C(C(=O)OCC)N1`, under setting [7], the survivor count is given as 0 of 6.

As to `CC(O)(c1ccco1)c1nc2ccccc2s1` (stereo not drawn), under setting [5], the survivor count is given as 0 of 6.

For `c1ccc(-c2c3ccccc3c(-c3ccccc3)c3c(-c4ccccc4)c4ccccc4c(-c4ccccc4)c23)cc1`, the survivor count (dose: 120.0 mg/kg/injection, schedule: Q01DX005 (ip), vehicle: saline with Tween-80) was 6 of 6 and the survivor count under setting [7] is given as 6 of 6.

With `FC(F)(F)c1ccccc1NC(=S)SCc1ccco1`, the survivor count (dose: 200.0 mg/kg/injection, schedule: Q01DX009 (ip), vehicle: suspension in saline) is given as 5 of 6.

As for `O=c1ccc2[n+]([O-])c3ccc(O)cc3oc-2c1`, the survivor count (dose: 200.0 mg/kg/injection, schedule: Q01DX005 (ip), vehicle: saline with Tween-80) was 4 of 5.

Consider `CCCCCCCCCCCCNC(=S)C(=S)NCCCCCCCCCCCC`, for which the survivor count under setting [6] was 6 of 6.
